Reference: patent publication US20050196396A1 (GREENVILLE HOSPITAL SYSTEM, published 2005)
No constants are given. Whether binding was seen depends on the method and setting. Some entries that bind do so weakly or less than the wild type.

Chains of the proteins cited; added tags and fusions are not shown. Residues count along the entry.
UniProt P35968, residues 329-424: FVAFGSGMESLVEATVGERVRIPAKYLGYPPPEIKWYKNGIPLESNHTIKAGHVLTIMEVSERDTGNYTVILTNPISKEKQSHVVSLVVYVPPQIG

Target: KDR (Ig4) (UniProt P35968)
Experiment: FPLC purification fractions (self-association)

binding: binds
Substance: KDR (Ig4) (from UniProt P35968 329-424) (receptor)
